Results: PubChem BioAssay AID330 (DTP/NCI, 2004)
The list is a part of this screen's results and no random one: it gathers tests that were run many times, whatever their T/C, doses with no T/C, and many T/C values between a quarter and a half above the control. Other doses and runs of a compound stand elsewhere. T/C gives the treated animals as a percentage of the vehicle group. Some entries give survivors of the animals treated and no T/C: the source files T/C as zero there, which appears to mark a toxic dose or a test without result, not a measured value. Some doses without a T/C left all or most animals alive at the check, yet need not have been tolerated: survival well below the control is almost never listed, so the zero probably covers shortened survival too. Counts of survivors are from the toxicity check (mostly the fifth day) where no day follows; animals may have died later. Schedules are NCI's codes, taken here to give the interval after Q, in days (D) or hours (H), and the number of doses after X. Some doses were run more than once; the results are listed from low to high. Brackets with × stand for listed records that agree. Where survival is the endpoint, the PubChem record calls one and a half times the control and up active, and a quarter to a half above the control has no call in these data; cut-offs in other NCI protocols can differ. Some T/C values are followed by the survivors on the day toxicity was checked, most often the fifth; without a count, all were alive then.

System: P388 leukemia ip, CD2F1 mice, survival T/C
Test: NCI In Vivo Anticancer Drug Screen. Data for tumor model P388 Leukemia (intraperitoneal) in CD2F1 (CDF1) mice
Details: T/C endpoint: median survival time, higher T/C = longer survival
[1] = dose: 50.0 mg/kg/injection, schedule: Q01DX001 (ip), vehicle: Klucel (hydroxypropylcellulose) (HPC)
[2] = dose: 100.0 mg/kg/injection, schedule: Q01DX001 (ip), vehicle: Klucel (hydroxypropylcellulose) (HPC)
[3] = dose: 200.0 mg/kg/injection, schedule: Q01DX001 (ip), vehicle: Klucel (hydroxypropylcellulose) (HPC)
[4] = dose: 200.0 mg/kg/injection, schedule: Q04DX003 (ip), vehicle: Klucel (hydroxypropylcellulose) (HPC)
[5] = dose: 400.0 mg/kg/injection, schedule: Q01DX001 (ip), vehicle: Klucel (hydroxypropylcellulose) (HPC)
[6] = dose: 400.0 mg/kg/injection, schedule: Q04DX002 (ip), vehicle: Klucel (hydroxypropylcellulose) (HPC)
[7] = dose: 400.0 mg/kg/injection, schedule: Q04DX003 (ip), vehicle: Klucel (hydroxypropylcellulose) (HPC)

CC(=O)NNC(=O)c1ccccn1
T/C (dose: 25.0 mg/kg/injection, schedule: Q01DX005 (ip), vehicle: Klucel (hydroxypropylcellulose) (HPC), evaluated on day 30): 87, 93, 95 [2 of 3 alive], 96, 97 (2×), 98, 99, 99 [5 of 6 alive], 100 (2×), 101 (3×), 102, 103 (2×), 104 (3×), 105, 106 (2×), 109, 112, 114, 122, 128, 164 % of control
T/C (dose: 25.0 mg/kg/injection, schedule: Q01DX005 (ip), vehicle: Klucel (hydroxypropylcellulose) (HPC), evaluated on day 35): 108 % of control
survivor count (dose: 25.0 mg/kg/injection, schedule: Q01DX005 (ip), vehicle: Klucel (hydroxypropylcellulose) (HPC)): 3 of 3 and 6 of 6
T/C (dose: 25.0 mg/kg/injection, schedule: Q01DX009 (ip), vehicle: Klucel (hydroxypropylcellulose) (HPC), evaluated on day 30): 88, 89, 91 (2×), 93, 94, 95 (2×), 96, 97, 98, 99 (3×), 100 (5×), 102 (6×), 104, 105, 107, 112, 116 (2×), 123 % of control
T/C (dose: 25.0 mg/kg/injection, schedule: Q01DX009 (ip), vehicle: Klucel (hydroxypropylcellulose) (HPC), evaluated on day 35): 91 and 98 % of control
survivor count (dose: 25.0 mg/kg/injection, schedule: Q01DX009 (ip), vehicle: Klucel (hydroxypropylcellulose) (HPC)): 3 of 3
T/C [1]: 89 [4 of 6 alive], 90, 95, 96 (2×), 98, 99 (2×), 99 [5 of 6 alive], 100 (7×), 101 (5×), 102 (2×), 105, 108, 109, 111, 112, 113, 114, 115 % of control
survivor count [1]: 6 of 6
T/C (dose: 50.0 mg/kg/injection, schedule: Q01DX005 (ip), vehicle: Klucel (hydroxypropylcellulose) (HPC), evaluated on day 30): 89, 92, 94, 95, 96 (2×), 97, 99, 100 (7×), 101 (2×), 102, 103, 104 (2×), 105, 108 (2×), 109 (2×), 111, 112, 140, 176 % of control
T/C (dose: 50.0 mg/kg/injection, schedule: Q01DX005 (ip), vehicle: Klucel (hydroxypropylcellulose) (HPC), evaluated on day 35): 116 % of control
survivor count (dose: 50.0 mg/kg/injection, schedule: Q01DX005 (ip), vehicle: Klucel (hydroxypropylcellulose) (HPC)): 3 of 3 and 6 of 6
T/C (dose: 50.0 mg/kg/injection, schedule: Q01DX009 (ip), vehicle: Klucel (hydroxypropylcellulose) (HPC), evaluated on day 30): 87, 91, 92, 93, 94, 95, 96, 97, 98 (3×), 99 (2×), 100 (4×), 102 (5×), 103, 104 (2×), 105, 106, 107, 109 (2×), 110 % of control (2×)
T/C (dose: 50.0 mg/kg/injection, schedule: Q01DX009 (ip), vehicle: Klucel (hydroxypropylcellulose) (HPC), evaluated on day 35): 87 and 104 % of control
survivor count (dose: 50.0 mg/kg/injection, schedule: Q01DX009 (ip), vehicle: Klucel (hydroxypropylcellulose) (HPC)): 2 of 3
T/C (dose: 50.0 mg/kg/injection, schedule: Q04DX002 (ip), vehicle: Klucel (hydroxypropylcellulose) (HPC), evaluated on day 30): 88, 94, 95, 96, 97 (2×), 98 (2×), 99 (3×), 100 (7×), 101 (2×), 102, 104 (3×), 105 (2×), 106, 107, 110, 113, 132, 155, 166 % of control
T/C (dose: 50.0 mg/kg/injection, schedule: Q04DX002 (ip), vehicle: Klucel (hydroxypropylcellulose) (HPC), evaluated on day 35): 99, 102, 109 % of control
survivor count (dose: 50.0 mg/kg/injection, schedule: Q04DX002 (ip), vehicle: Klucel (hydroxypropylcellulose) (HPC)): 3 of 3 and 6 of 6
T/C (dose: 50.0 mg/kg/injection, schedule: Q04DX003 (ip), vehicle: Klucel (hydroxypropylcellulose) (HPC)): 89, 90, 93 (2×), 95, 96 (2×), 97, 98, 99 (5×), 100 (4×), 101, 102, 103, 104 (4×), 105, 106 (2×), 107 (2×), 108, 109, 115, 117 % of control
T/C [2]: 91 (3×), 95 (2×), 96, 98 (2×), 99 (3×), 100, 101, 102 (5×), 103 (3×), 104 (3×), 105, 106, 107, 112, 114 (2×), 119 % of control
survivor count [2]: 6 of 6
T/C (dose: 100.0 mg/kg/injection, schedule: Q01DX005 (ip), vehicle: Klucel (hydroxypropylcellulose) (HPC), evaluated on day 30): 90, 96, 97, 99, 99 [2 of 2 alive], 100 (5×), 100 [2 of 3 alive], 101, 102 (4×), 103 (2×), 104, 105 (2×), 106 (2×), 106 [2 of 3 alive], 108, 109, 110, 111, 113, 115, 123, 238 % of control
T/C (dose: 100.0 mg/kg/injection, schedule: Q01DX005 (ip), vehicle: Klucel (hydroxypropylcellulose) (HPC), evaluated on day 35): 112 % of control
T/C (dose: 100.0 mg/kg/injection, schedule: Q01DX009 (ip), vehicle: Klucel (hydroxypropylcellulose) (HPC), evaluated on day 30): 87, 89, 91, 94 (2×), 95, 96, 97 (2×), 98 (5×), 100 (2×), 101, 102 (3×), 104, 105 (2×), 106, 107, 109, 110 (2×), 111, 120, 125, 127 % of control
T/C (dose: 100.0 mg/kg/injection, schedule: Q01DX009 (ip), vehicle: Klucel (hydroxypropylcellulose) (HPC), evaluated on day 35): 87 and 107 % of control
survivor count (dose: 100.0 mg/kg/injection, schedule: Q01DX009 (ip), vehicle: Klucel (hydroxypropylcellulose) (HPC)): 3 of 3
T/C (dose: 100.0 mg/kg/injection, schedule: Q04DX002 (ip), vehicle: Klucel (hydroxypropylcellulose) (HPC), evaluated on day 30): 90 (2×), 93 (2×), 95, 96, 97, 99 (2×), 100 (4×), 101, 102 (3×), 103, 104 (2×), 105 (2×), 106 (2×), 108, 109 (2×), 110, 115, 121, 123, 128 % of control
T/C (dose: 100.0 mg/kg/injection, schedule: Q04DX002 (ip), vehicle: Klucel (hydroxypropylcellulose) (HPC), evaluated on day 35): 102, 103, 104 % of control [2 of 3 alive]
survivor count (dose: 100.0 mg/kg/injection, schedule: Q04DX002 (ip), vehicle: Klucel (hydroxypropylcellulose) (HPC)): 3 of 3 and 6 of 6
T/C (dose: 100.0 mg/kg/injection, schedule: Q04DX003 (ip), vehicle: Klucel (hydroxypropylcellulose) (HPC)): 90, 91, 92, 93, 95 (2×), 97 (3×), 98, 99, 100 (5×), 101 (2×), 102, 103, 104 (2×), 105 (3×), 106, 108 (4×), 109, 110, 111, 116 % of control
T/C [3]: 91, 94, 95 [5 of 6 alive], 96, 97, 98 [5 of 6 alive], 99 (4×), 100 (5×), 102 (3×), 103, 104 (2×), 105 (3×), 106, 108, 109, 113, 118, 119, 124 % of control
survivor count [3]: 6 of 6
T/C (dose: 200.0 mg/kg/injection, schedule: Q01DX005 (ip), vehicle: Klucel (hydroxypropylcellulose) (HPC), evaluated on day 30): 90 [5 of 6 alive], 92 [5 of 6 alive], 98, 99, 99 [5 of 6 alive], 103, 103 [5 of 6 alive], 104, 105, 106 [5 of 6 alive], 108, 109, 109 [2 of 3 alive], 110 (2×), 112, 115, 116, 128 [4 of 6 alive], 129 % of control
T/C (dose: 200.0 mg/kg/injection, schedule: Q01DX005 (ip), vehicle: Klucel (hydroxypropylcellulose) (HPC), evaluated on day 35): 129 % of control
survivor count (dose: 200.0 mg/kg/injection, schedule: Q01DX005 (ip), vehicle: Klucel (hydroxypropylcellulose) (HPC)): 1 of 6, 1 of 3, 2 of 6, 3 of 6, 2 of 3, 4 of 6, 5 of 6
T/C (dose: 200.0 mg/kg/injection, schedule: Q01DX009 (ip), vehicle: Klucel (hydroxypropylcellulose) (HPC), evaluated on day 30): 86, 87, 90 [2 of 3 alive], 93, 94, 96, 96 [2 of 3 alive], 97 [5 of 6 alive], 98 [5 of 6 alive], 99, 100, 102 (2×), 108 [5 of 6 alive], 109, 110 [2 of 3 alive], 111, 114, 122, 132 % of control
T/C (dose: 200.0 mg/kg/injection, schedule: Q01DX009 (ip), vehicle: Klucel (hydroxypropylcellulose) (HPC), evaluated on day 35): 87 and 95 % of control
survivor count (dose: 200.0 mg/kg/injection, schedule: Q01DX009 (ip), vehicle: Klucel (hydroxypropylcellulose) (HPC)): 0 of 3, 1 of 3, 3 of 6, 2 of 3, 4 of 6, 5 of 6, 3 of 3, 6 of 6
T/C (dose: 200.0 mg/kg/injection, schedule: Q04DX002 (ip), vehicle: Klucel (hydroxypropylcellulose) (HPC), evaluated on day 30): 94, 95, 98 (2×), 98 [5 of 6 alive], 99 (2×), 100 (4×), 101 (2×), 102, 102 [5 of 6 alive], 103 (3×), 104 (3×), 105, 106 (3×), 107 (2×), 108 (3×), 109 (2×), 114 % of control [2 of 3 alive]
T/C (dose: 200.0 mg/kg/injection, schedule: Q04DX002 (ip), vehicle: Klucel (hydroxypropylcellulose) (HPC), evaluated on day 35): 104 (2×) and 105 % of control
survivor count (dose: 200.0 mg/kg/injection, schedule: Q04DX002 (ip), vehicle: Klucel (hydroxypropylcellulose) (HPC)): 3 of 3 and 6 of 6
T/C [4]: 88 [2 of 3 alive], 89 [5 of 6 alive], 90, 91, 93, 94, 95 (3×), 96, 97 (2×), 99 (3×), 100 (4×), 102, 103, 104 (3×), 105, 106 (2×), 107 (4×), 111, 114 % of control
survivor count [4]: 6 of 6
T/C [5]: 99 [2 of 3 alive], 100, 102 [2 of 3 alive], 104 [4 of 6 alive], 109 [2 of 3 alive], 109 [5 of 6 alive], 114 [2 of 3 alive], 115 [2 of 3 alive], 139 % of control [2 of 3 alive]
survivor count [5]: 0 of 3, 0 of 6, 1 of 6, 1 of 3, 2 of 6, 3 of 6, 6 of 6
T/C [6]: 88 [4 of 6 alive], 99 [4 of 6 alive], 100, 108 [2 of 3 alive], 109, 109 [2 of 3 alive], 109 [4 of 6 alive], 111 % of control
survivor count [6]: 0 of 3 (2×), 0 of 6 (2×), 1 of 6, 1 of 3, 2 of 6 (2×), 3 of 6, 2 of 3, 4 of 6, 6 of 6
T/C [7]: 86 [2 of 3 alive], 89 [4 of 6 alive], 91 [5 of 6 alive], 95 % of control [2 of 3 alive]
survivor count [7]: 0 of 3, 0 of 6, 1 of 6, 1 of 3, 2 of 6, 3 of 6, 2 of 3, 4 of 6

O=C(O)c1cc(-n2c(-c3ccccc3)cc3c2CCc2ccccc2-3)ccc1O
survivor count (dose: 200.0 mg/kg/injection, schedule: Q01DX005 (ip), vehicle: saline with Tween-80): 4 of 6

CN1CCC(CN2c3ccccc3Sc3ccccc32)C1 (stereo not given)
survivor count (dose: 100.0 mg/kg/injection, schedule: Q01DX009 (ip), vehicle: saline with Tween-80): 0 of 6
